From publication doi:10.1101/728410
Results are given in words; binding and its absence hold for the method and conditions named. In cells and extracts the contact can be indirect. Binding calls can cover weak binding; strength is not graded here. For some assays here: Where a sequence is shown, tags or fusion partners need not be part of it.

Tests used:
[1] = biological target: T1, PRMT7 (endogenous) (human (endogenous in MDA-MB-231)) (UniProt Q9NVM4); experiment: co-IP
T1 sequence: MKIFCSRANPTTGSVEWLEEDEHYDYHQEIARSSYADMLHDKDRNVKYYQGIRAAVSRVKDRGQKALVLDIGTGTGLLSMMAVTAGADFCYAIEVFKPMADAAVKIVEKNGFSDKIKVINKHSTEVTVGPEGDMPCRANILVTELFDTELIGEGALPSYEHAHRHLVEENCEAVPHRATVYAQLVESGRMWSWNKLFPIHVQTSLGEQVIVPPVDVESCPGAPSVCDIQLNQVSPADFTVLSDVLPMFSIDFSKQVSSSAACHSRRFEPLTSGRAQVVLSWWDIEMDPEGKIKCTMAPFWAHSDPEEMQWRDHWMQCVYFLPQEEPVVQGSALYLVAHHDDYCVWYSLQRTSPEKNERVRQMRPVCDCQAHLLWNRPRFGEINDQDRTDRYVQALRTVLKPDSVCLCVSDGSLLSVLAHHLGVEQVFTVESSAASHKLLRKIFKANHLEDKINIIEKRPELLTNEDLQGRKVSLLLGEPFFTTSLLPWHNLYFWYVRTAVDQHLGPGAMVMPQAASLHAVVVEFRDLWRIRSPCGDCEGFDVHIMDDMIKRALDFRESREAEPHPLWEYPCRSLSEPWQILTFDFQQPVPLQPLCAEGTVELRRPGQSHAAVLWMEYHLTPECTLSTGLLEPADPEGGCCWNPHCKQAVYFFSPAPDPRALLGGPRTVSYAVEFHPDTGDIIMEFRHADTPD

GST-tagged PRMT7 = biological target: T2, GST-tagged PRMT7 (UniProt Q9NVM4); experiment: pull-down
T2 sequence: T1 sequence

binding [1]: binds
binding (GST-tagged PRMT7): binds
Substance: shank2 (endogenous)
